In all, about 53,000 sequences went through this assay and about 3,700 (7%) were called active.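 The calls were made as follows: active = gene knockdowns whose robust z-score for IL-1 alpha signal is at least 2 or at most -2, so actives lie on both sides; inactive = the rest.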 The list shows a part of the results.

107 sequences from PubChem BioAssay AID1508600 (Functional Genomics Laboratory (NCATS/FGL), 2020) can be followed below.

The experiment can be described thus: Components of the Cytosolic LPS Sensing Pathway: Gene Identification via Genome-wide siRNA Screen.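 Also: robust z of the log signal after scaling to non-targeting control siRNA wells of the plate.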 Conditions: RAW264.7 macrophages, IL-1a HTRF, actives lie on both sides, screened at 100 nM (by protocol), cells primed 5 h with Pam3CSK4 first. The essentials:
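Mouse macrophage line RAW264.7 is transfected with siRNA (100 nM final), grown 48h, primed with TLR ligand Pam3CSK4 5 h and given intracellular LipidA 24 h. IL-1a in supernatant is read by HTRF and viability by luminescence.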
In general terms: Time-resolved FRET reads energy transfer from a long-lived donor to a nearby acceptor.
On to CCAGAAUGCUAGACACUGCTT against Clec4b2, for which the z-score was inactive: 0.0683.

In the case of GGUCCUUCCUCAGAUCCCUTT against Amdhd2, the z-score is inactive: -1.13.

As to GGAAAUUCAAAAAGUGUGUTT against Aplf, the z-score was active: -2.25.

Turning to CGUAUUGGAAAGACUGCUUTT against Poldip3, the z-score was inactive: 1.48.

With GGGCUCACUCUGUCUCUACTT against Rpp25l, the z-score was inactive: -0.378.

In the case of GGCUGUUUUCUGUGCUACATT against Olfr298, the z-score is inactive: 0.304.

Turning to CCAUGGCAGGCAAUUUGAUTT against Olfr1254, the z-score is inactive: -0.174.

As to GAUGGAUCUUUAUAAGCAGTT against Wfdc18, the z-score is inactive: -0.768.

As for GGAGCAGCUGCACUUGUAUTT against Nkiras1, the z-score is inactive: -0.779.

For CGUCUCUGAUAUUGUCGGCTT against Fbl, the z-score was inactive: 1.14.

Take GCGAUGUUAGUAAUACAACTT against Six1: the z-score is inactive: 0.494.

For GGCUCAGGCAUUGUCCUGUTT against Il10ra, the z-score is inactive: -1.63.

Take GUAUAUCUUUGGCUGGGUGTT against Olfr460: the z-score was inactive: -0.388.

As for CGAGUUCAAACCGUCCUCUTT against Sdhc, the z-score was inactive: 0.105.

CCCUAAAACCAGGUAUCAATT against Vdac1: the z-score is inactive: 0.208.

As to GACAGCAACGUGAAAUUAGTT against Xlr, the z-score is inactive: -0.828.

As to GGGCUGCAUUACACAAAUGTT against Olfr1496, the z-score is inactive: 0.266.

Take “CCGUCUGGCCAGUGAAAUUTT against 1700019D03Rik”: the z-score is inactive: 1.23.

In the case of CGUGCAAGCAGUGAUUUUGTT against Smpx, the z-score is inactive: -1.33.

As to GGUUGCUUCCUCUUAAUUUTT against Eda, the z-score is inactive: -0.183.

As for GCAGGUCAACUGUUUUAUCTT against Bcap31, the z-score was inactive: 1.06.

As for GGGUCAGAGUUUUUCCAUCTT against Otog, the z-score is active: 2.72.

As for GGAUGUAAACGAAUGUGCUTT against Lrp4, the z-score was inactive: 0.74.

Consider UACAGUAGAGUCAUUUUCUTT against Vmn1r179, for which the z-score was inactive: -0.47.

For GCCCUUACCGAAGAAUUAATT against Lonrf2, the z-score is inactive: 0.531.

As for GCCUGGUGUAUGCUAAUGGTT against Kcp, the z-score is inactive: 0.98.

Turning to GCACCUCUUGGACAAAAUUTT against Tsc1, the z-score is inactive: -1.59.

In the case of GGGUGGCAUCAUGCAAAGATT against Hdac8, the z-score is inactive: 1.4.

GGAAAAACUCCUUUUCCACTT against Shcbp1: the z-score was inactive: 0.292.

As for GGUUUAAGAAUGAAGUGGATT against Mtmr3, the z-score is inactive: -1.18.

GGUUUUGGUCUCACUUUAATT against Magix: the z-score is inactive: 0.237.

In the case of GCGACUCCUAUAAUUUCUATT against Rpa3, the z-score is active: -2.17.

With GGGCCUUCACACUUCACUUTT against Ost4, the z-score was inactive: 0.125.

In the case of GCCGUCAGACAAGGAGGAATT against Magi1, the z-score is active: 2.43.

In the case of GGCCUGUCCAGUGAUGAUGTT against Paxbp1, the z-score is inactive: -1.79.

On to CCCUCUCUGGGACUACAUATT against Zfp395, for which the z-score was inactive: 0.00687.

Consider GCAUGCGUGAGAAACUGAUTT against Clec2e, for which the z-score is inactive: -0.152.

Consider GGAGGAAGCCAUCAUCAUGTT against Ndufa13, for which the z-score was inactive: -1.59.

Take GGUAAAUCUCAGCUUUUCUTT against Pcdhga3: the z-score is inactive: 0.785.

Regarding GCUUGUGUCACCUACGGAATT against Mterf2, the z-score is inactive: 0.944.

For GGCUACUCAGUCCUAAGCATT against Kcns2, the z-score was inactive: 0.268.

As for CCCAUAGCUGAGCCUAACUTT against Dab2, the z-score was inactive: -0.537.

In the case of GGAUGCAUGGCUCAAUAUUTT against Olfr1164, the z-score is active: 2.01.

For CCUCAUUUCCAAACUCAAATT against Fbxw13, the z-score was inactive: -0.491.

As for GGAGGUCAGUGUGACUUCATT against Taf1c, the z-score was inactive: -0.662.

With GGCCCUCAUCUUCAACAAGTT against Erlin2, the z-score was inactive: -0.17.

Turning to GCAUCGCUAAUCCUGAGUUTT against Itgb2, the z-score was inactive: -0.461.

Regarding GGCAGAGAAAAGAAGAAGATT against Abcb4, the z-score is inactive: 1.59.

With GGUUGCUAGUGCUAAGGACTT against Pdlim2, the z-score is inactive: 0.245.

With GGUUUUGGGCACAGCUGGUTT against Cryz, the z-score is inactive: -0.74.

As to GCGAGCCUUUGAGAAGAAUTT against Emx1, the z-score was inactive: -1.45.

In the case of GCUGUUCUAUCAGACCUUUTT against Cyp2b10, the z-score is inactive: -0.236.

Consider GGAUCGUUUCCUCUCAUCATT against Cd4, for which the z-score is inactive: -0.683.

Take GGAGCAUAAAAGAGAAAGATT against Jdp2: the z-score is inactive: -0.0101.

GCAGAGGGCAACUCGUAAGTT against Gm6034: the z-score was inactive: -0.843.

Regarding GGCAAAAUCGGAGACUUUCTT against Exosc10, the z-score is inactive: -0.623.

On to GCGGAGAGCGAUGAUCUUUTT against Pfkfb4, for which the z-score was inactive: 0.136.

With CCUGCUCAACGGAGACCAUTT against Hmx3, the z-score is active: 3.47.

Turning to CGAGUGGCUUUUAAAAGGUTT against Slc10a7, the z-score was inactive: 0.128.

Regarding GGCCCACUUUAUCAUGAAUTT against Zpr1, the z-score was inactive: -0.585.

GGACUGUCCUCCAAUUUGCTT against Nat8f3: the z-score is active: -2.6.

In the case of GGCACACACUCCCUGACAATT against Cst3, the z-score is inactive: -0.863.

For GGGUGCUUACAGAAUAUCUTT against Ms4a19, the z-score was inactive: 1.07.

Take CCUAAUGUACACUAACUAUTT against Hsd17b14: the z-score was inactive: 1.84.

As to GGGCCCAUCUUUUUCUACATT against Dpp7, the z-score was inactive: -0.0345.

Take GUGCCUUUGUGGUCUUCCUTT against Tmem179: the z-score is inactive: -1.16.

Take GGCUUAGUUGGCUAUUACATT against Tbc1d12: the z-score is inactive: 1.01.

GGCUCAGUUAAACUUACUGTT against Pak2: the z-score is inactive: 0.195.

As to GCCUGAUCUACUGUGGUCCTT against Olfr1347, the z-score was inactive: -0.167.

With CGCACAUGUAGUUAAUAAATT against Iqcg, the z-score is inactive: -0.96.

As for GCUUGAGCUUAUUAAUGUUTT against Anks1b, the z-score was inactive: 0.708.

Turning to CCUUAAGAUGAGCAUUGCUTT against Chchd5, the z-score is inactive: -0.139.

As for GCUGAAUGCGACAUUUAUATT against Hk2, the z-score is inactive: 0.668.

For GCUGGGAAAUCACACUAAGTT against Olfr1427, the z-score is inactive: 0.12.

Turning to GGAAGUCACUAAUGAAAUGTT against Tbx19, the z-score was inactive: 0.0557.

On to GGUGGCCAAGAAAACAUGUTT against Rims3, for which the z-score was inactive: 0.12.

As to GCCACUUUACCAAACGACATT against Pglyrp2, the z-score is inactive: 1.28.

On to GGAGGAAGUGUUCUUUUCCTT against Psg17, for which the z-score is inactive: -0.169.

As for GCAACACAAGAUUGUAUUGTT against Rif1, the z-score is inactive: -0.439.

As to “AGUGAAACUAAACUGGAGUTT against 2610318N02Rik”, the z-score is inactive: 1.41.

In the case of GGAAGAGACGCAAUAAGUGTT against Borcs5, the z-score is inactive: 0.74.

Regarding CGUGGUGACUAAGGAUUAUTT against Slc6a20b, the z-score was inactive: -1.86.

Turning to GGUUUUCCGGACAGACUUGTT against Jade2, the z-score was inactive: 1.25.

As for GCCCUACGGACAAACAGCATT against Zfp790, the z-score was inactive: -1.68.

For CCAGGAUCCUGUUUCUGACTT against AF067061, the z-score is active: 2.19.

As for GGAUGGAGAGAACUACUUATT against Gltpd2, the z-score is inactive: 0.999.

In the case of GGUGAUUCCAGACUCGGAUTT against Pdzd11, the z-score is inactive: -1.26.

Turning to “GGCAUAACCAAAAGAAAGUTT against 4933427E11Rik”, the z-score was inactive: 0.648.

Regarding GGAAACUUUUACUUCACAGTT against P3h1, the z-score was inactive: -0.322.

GGUGGGAGUAGUGUUUGUGTT against Ly6f: the z-score was inactive: 1.33.

For the sequence CCUGAGAUUUCCUAACAUCTT against Prr11, the z-score is inactive: -0.281.

Regarding GGCCACUCAACUCUGUACUTT against Atxn7l1, the z-score was inactive: 1.86.

Consider GGUCAACCAUUCCUCUUGATT against Ccdc9b, for which the z-score was inactive: 0.409.

For the sequence GGUUCUGUGAAUUCUUUAATT against U90926, the z-score is inactive: -0.154.

Consider GCUGUGGGAGGAUAGCAUGTT against Mfsd3, for which the z-score was inactive: -1.01.

Regarding “GGACAUUGCUUUUCACUAUTT against 4930447C04Rik”, the z-score was inactive: -0.191.

With GGAAUGCAAUGACAAAUGATT against Kank3, the z-score was inactive: 0.198.

For GGCCAUUAUCAUCAAAGUATT against Dph6, the z-score is inactive: -1.69.

On to GCCCUGUACCUUUUAGCUUTT against Olfr704, for which the z-score was inactive: -0.306.

With GGUGAUAGGAGAGAGAAAGTT against Miga2, the z-score was inactive: 0.447.

On to CGGAUCACAUUGCAUAAAATT against Calcrl, for which the z-score is inactive: -0.295.

With GGAAACUACUACAAUCAAGTT against Pigl, the z-score was inactive: 1.51.

As for GGCAUGUCCAAGGAAUACUTT against Snrpg, the z-score was inactive: -1.4.

Take GGACUAGAAUAUCACAACGTT against Iqub: the z-score is inactive: 0.905.

On to CGAAUUCAUACCAGUGUGCTT against Ndufa10, for which the z-score was active: 2.84.

Regarding GGAUGUGACUCAGAUUGGGTT against Tmem171, the z-score is inactive: 0.0209.

Turning to GGUGCUGCCAAGAUCUCUUTT against Ido2, the z-score is inactive: -0.0285.
